Among the data in the supplement of paper PMC11546906 are OD600 values, retold here.

Counter-ions that a name gives are not always drawn. The list shows a part of the results. Single values are uncertain here, since repeats match poorly.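 FDA-approved drugs were each paired with colistin at one-eighth its MIC and screened against a multidrug-resistant, mcr-1-positive clinical E. coli isolate, with OD600 read after 24 h. Drug-free bacteria served as growth control, plain broth as blank. Combinations were active if OD600 dropped below 0.2.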

This assay deals with Escherichia coli 42 (mcr-1-positive clinical isolate). In words: OD600 after 24 h growth with compound plus colistin (absorbance units (OD600)); higher = more bacterial growth (less inhibition). The following applies: first compound 25 µM; colistin concentration 0.5 ug/mL; incubation time 24 h; 37 °C.
In the case of `N=C(NCCCCCCNC(=N)NC(=N)Nc1ccc(Cl)cc1)NC(=N)Nc1ccc(Cl)cc1` [Chlorhexidine dihydrochloride] + CCC(C)CCCC(=O)N[C@@H](CCN)C(=O)N[C@H](C(=O)N[C@@H](CCN)C(=O)N[C@H]1CCNC(=O)[C@H]([C@@H](C)O)NC(=O)[C@H](CCN)NC(=O)[C@H](CCN)NC(=O)[C@H](CC(C)C)NC(=O)[C@@H](CC(C)C)NC(=O)[C@H](CCN)NC1=O)[C@@H](C)O [colistin], the OD600 is active: 0.039.
As to `CC(=O)OCC1=C(C(=O)O)N2C(=O)[C@@H](NC(=O)Cc3cccs3)[C@H]2SC1` [Cephalothin sodium] + CCC(C)CCCC(=O)N[C@@H](CCN)C(=O)N[C@H](C(=O)N[C@@H](CCN)C(=O)N[C@H]1CCNC(=O)[C@H]([C@@H](C)O)NC(=O)[C@H](CCN)NC(=O)[C@H](CCN)NC(=O)[C@H](CC(C)C)NC(=O)[C@@H](CC(C)C)NC(=O)[C@H](CCN)NC1=O)[C@@H](C)O [colistin], the OD600 is inactive: 0.807.
As for `Cn1c(=O)c2c(ncn2CC(O)CO)n(C)c1=O` (centres undefined) [Diphylline] + CCC(C)CCCC(=O)N[C@@H](CCN)C(=O)N[C@H](C(=O)N[C@@H](CCN)C(=O)N[C@H]1CCNC(=O)[C@H]([C@@H](C)O)NC(=O)[C@H](CCN)NC(=O)[C@H](CCN)NC(=O)[C@H](CC(C)C)NC(=O)[C@@H](CC(C)C)NC(=O)[C@H](CCN)NC1=O)[C@@H](C)O [colistin], the figure is inactive: 1.11.
As to `N#Cc1ccc(C(c2ccc(C#N)cc2)n2cncn2)cc1` [Letrozole] + CCC(C)CCCC(=O)N[C@@H](CCN)C(=O)N[C@H](C(=O)N[C@@H](CCN)C(=O)N[C@H]1CCNC(=O)[C@H]([C@@H](C)O)NC(=O)[C@H](CCN)NC(=O)[C@H](CCN)NC(=O)[C@H](CC(C)C)NC(=O)[C@@H](CC(C)C)NC(=O)[C@H](CCN)NC1=O)[C@@H](C)O [colistin], the OD600 is inactive: 1.03.
Regarding `CC(=O)O[C@@]12CO[C@@H]1C[C@H](O)[C@@]1(C)C(=O)[C@H](O)C3=C(C)[C@@H](OC(=O)[C@H](O)[C@@H](NC(=O)OC(C)(C)C)c4ccccc4)C[C@@](O)([C@@H](OC(=O)c4ccccc4)[C@H]21)C3(C)C` [Docetaxel] + CCC(C)CCCC(=O)N[C@@H](CCN)C(=O)N[C@H](C(=O)N[C@@H](CCN)C(=O)N[C@H]1CCNC(=O)[C@H]([C@@H](C)O)NC(=O)[C@H](CCN)NC(=O)[C@H](CCN)NC(=O)[C@H](CC(C)C)NC(=O)[C@@H](CC(C)C)NC(=O)[C@H](CCN)NC1=O)[C@@H](C)O [colistin], the OD600 is inactive: 0.842.
`C[C@]12CCC3=C4CCC(=O)C=C4CC[C@H]3[C@@H]1CC[C@@]2(O)CC#N` [Dienogest] + CCC(C)CCCC(=O)N[C@@H](CCN)C(=O)N[C@H](C(=O)N[C@@H](CCN)C(=O)N[C@H]1CCNC(=O)[C@H]([C@@H](C)O)NC(=O)[C@H](CCN)NC(=O)[C@H](CCN)NC(=O)[C@H](CC(C)C)NC(=O)[C@@H](CC(C)C)NC(=O)[C@H](CCN)NC1=O)[C@@H](C)O [colistin]: the OD600 is inactive: 0.891.
For `Clc1ccc2c(c1)CCc1cccnc1C2=C1CCNCC1` [Desloratadine] + CCC(C)CCCC(=O)N[C@@H](CCN)C(=O)N[C@H](C(=O)N[C@@H](CCN)C(=O)N[C@H]1CCNC(=O)[C@H]([C@@H](C)O)NC(=O)[C@H](CCN)NC(=O)[C@H](CCN)NC(=O)[C@H](CC(C)C)NC(=O)[C@@H](CC(C)C)NC(=O)[C@H](CCN)NC1=O)[C@@H](C)O [colistin], the OD600 was inactive: 0.728.
Take `C[C@](N)(Cc1ccc(O)c(O)c1)C(=O)O` [Methyldopa] + CCC(C)CCCC(=O)N[C@@H](CCN)C(=O)N[C@H](C(=O)N[C@@H](CCN)C(=O)N[C@H]1CCNC(=O)[C@H]([C@@H](C)O)NC(=O)[C@H](CCN)NC(=O)[C@H](CCN)NC(=O)[C@H](CC(C)C)NC(=O)[C@@H](CC(C)C)NC(=O)[C@H](CCN)NC1=O)[C@@H](C)O [colistin]: the OD600 is inactive: 0.985.
With `O=C1O[C@H](CO)[C@@H](O)[C@H](O)[C@H]1O` [D-(+)-Glucono-1,5-lactone] + CCC(C)CCCC(=O)N[C@@H](CCN)C(=O)N[C@H](C(=O)N[C@@H](CCN)C(=O)N[C@H]1CCNC(=O)[C@H]([C@@H](C)O)NC(=O)[C@H](CCN)NC(=O)[C@H](CCN)NC(=O)[C@H](CC(C)C)NC(=O)[C@@H](CC(C)C)NC(=O)[C@H](CCN)NC1=O)[C@@H](C)O [colistin], the OD600 is inactive: 1.15.
As to `O=C(O)C(=O)O.[NH-][C@@H]1CCCC[C@H]1[NH-].[Pt+2]` [Oxaliplatin] + CCC(C)CCCC(=O)N[C@@H](CCN)C(=O)N[C@H](C(=O)N[C@@H](CCN)C(=O)N[C@H]1CCNC(=O)[C@H]([C@@H](C)O)NC(=O)[C@H](CCN)NC(=O)[C@H](CCN)NC(=O)[C@H](CC(C)C)NC(=O)[C@@H](CC(C)C)NC(=O)[C@H](CCN)NC1=O)[C@@H](C)O [colistin], the OD600 is inactive: 0.987.
For `CNCCC=C1c2ccccc2CCc2ccccc21` [Nortriptyline hydrochloride] + CCC(C)CCCC(=O)N[C@@H](CCN)C(=O)N[C@H](C(=O)N[C@@H](CCN)C(=O)N[C@H]1CCNC(=O)[C@H]([C@@H](C)O)NC(=O)[C@H](CCN)NC(=O)[C@H](CCN)NC(=O)[C@H](CC(C)C)NC(=O)[C@@H](CC(C)C)NC(=O)[C@H](CCN)NC1=O)[C@@H](C)O [colistin], the OD600 is inactive: 0.96.
For the compound `CC(=O)CCCCn1c(=O)c2c(ncn2C)n(C)c1=O` [Pentoxifylline] + CCC(C)CCCC(=O)N[C@@H](CCN)C(=O)N[C@H](C(=O)N[C@@H](CCN)C(=O)N[C@H]1CCNC(=O)[C@H]([C@@H](C)O)NC(=O)[C@H](CCN)NC(=O)[C@H](CCN)NC(=O)[C@H](CC(C)C)NC(=O)[C@@H](CC(C)C)NC(=O)[C@H](CCN)NC1=O)[C@@H](C)O [colistin], the OD600 was inactive: 0.983.
As to `CCCCCCCCCC(=O)N[C@@H](Cc1c[nH]c2ccccc12)C(=O)N[C@H](CC(N)=O)C(=O)N[C@@H](CC(=O)O)C(=O)N[C@@H]1C(=O)NCC(=O)N[C@@H](CCCN)C(=O)N[C@@H](CC(=O)O)C(=O)N[C@H](C)C(=O)N[C@@H](CC(=O)O)C(=O)NCC(=O)N[C@H](CO)C(=O)N[C@@H]([C@H](C)CC(=O)O)C(=O)N[C@@H](CC(=O)c2ccccc2N)C(=O)O[C@@H]1C` [Daptomycin] + CCC(C)CCCC(=O)N[C@@H](CCN)C(=O)N[C@H](C(=O)N[C@@H](CCN)C(=O)N[C@H]1CCNC(=O)[C@H]([C@@H](C)O)NC(=O)[C@H](CCN)NC(=O)[C@H](CCN)NC(=O)[C@H](CC(C)C)NC(=O)[C@@H](CC(C)C)NC(=O)[C@H](CCN)NC1=O)[C@@H](C)O [colistin], the OD600 is inactive: 0.891.
On to `N#C/C(=C1/SC[C@@H](c2ccc(Cl)cc2Cl)S1)n1ccnc1` [Luliconazole] + CCC(C)CCCC(=O)N[C@@H](CCN)C(=O)N[C@H](C(=O)N[C@@H](CCN)C(=O)N[C@H]1CCNC(=O)[C@H]([C@@H](C)O)NC(=O)[C@H](CCN)NC(=O)[C@H](CCN)NC(=O)[C@H](CC(C)C)NC(=O)[C@@H](CC(C)C)NC(=O)[C@H](CCN)NC1=O)[C@@H](C)O [colistin], for which the OD600 was inactive: 1.06.
